Among the data in publication PMC11053133 are binding values, retold here.

These are yes or no findings as the source states them, for the method shown. Binding seen in cells or lysates may run through a third protein. Some binding calls cover weakened binding; strength is not graded here. Sequences can lack the tags named with a protein.

In the assay the target is YAP1-Flag (human) (UniProt P46937). In words: co-IP; HEK-293T, HGC-27 and NCI-N87 cells co-transfected with the indicated plasmids, proteins extracted after 72 h, lysed with 1% NP-40; lysates incubated with anti-FLAG M2 magnetic beads, anti-Myc-tag magnetic beads or mouse IgG1 isotype control beads at 4 °C overnight; washed with 0.05% NP-40 thrice; Western blot. Background: Immunoblotting shows a protein as a band on a membrane.

B1: SETD7-Myc (enzyme, UniProt Q8WTS6 1-366)
chain: MDSDDEMVEEAVEGHLDDDGLPHGFCTVTYSSTDRFEGNFVHGEKNGRGKFFFFDGSTLEGYYVDDALQGQGVYTYEDGGVLQGTYVDGELNGPAQEYDTDGRLIFKGQYKDNIRHGVCWIYYPDGGSLVGEVNEDGEMTGEKIAYVYPDERTALYGKFIDGEMIEGKLATLMSTEEGRPHFELMPGNSVYHFDKSTSSCISTNALLPDPYESERVYVAESLISSAGEGLFSKVAVGPNTVMSFYNGVRITHQEVDSRDWALNGNTLSLDEETVIDVPEPYNHVSKYCASLGHKANHSFTPNCIYDMFVHPRFGPIKCIRTLRAVEADEELTVAYGYDHSPPGKSGPEAPEWYQVELKAFQATQQK
With B1, the binding entry is reported as “binds”.
